# Screening data, single-dose tests

Chains of the proteins cited; added tags and fusions are not shown. Residues count along the entry.
UniProt P9WNZ1, whole entry: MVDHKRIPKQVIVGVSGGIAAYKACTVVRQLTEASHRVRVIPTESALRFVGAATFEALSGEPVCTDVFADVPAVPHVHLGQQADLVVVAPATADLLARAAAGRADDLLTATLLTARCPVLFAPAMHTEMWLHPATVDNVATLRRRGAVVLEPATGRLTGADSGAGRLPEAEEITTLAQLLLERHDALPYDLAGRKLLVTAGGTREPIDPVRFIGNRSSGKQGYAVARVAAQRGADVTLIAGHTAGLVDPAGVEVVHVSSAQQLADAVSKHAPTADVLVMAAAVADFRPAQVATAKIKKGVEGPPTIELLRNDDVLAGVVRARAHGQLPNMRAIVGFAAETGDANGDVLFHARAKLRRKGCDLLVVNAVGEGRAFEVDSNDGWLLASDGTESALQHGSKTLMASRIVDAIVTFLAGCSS
UniProt I6X8D2, whole entry: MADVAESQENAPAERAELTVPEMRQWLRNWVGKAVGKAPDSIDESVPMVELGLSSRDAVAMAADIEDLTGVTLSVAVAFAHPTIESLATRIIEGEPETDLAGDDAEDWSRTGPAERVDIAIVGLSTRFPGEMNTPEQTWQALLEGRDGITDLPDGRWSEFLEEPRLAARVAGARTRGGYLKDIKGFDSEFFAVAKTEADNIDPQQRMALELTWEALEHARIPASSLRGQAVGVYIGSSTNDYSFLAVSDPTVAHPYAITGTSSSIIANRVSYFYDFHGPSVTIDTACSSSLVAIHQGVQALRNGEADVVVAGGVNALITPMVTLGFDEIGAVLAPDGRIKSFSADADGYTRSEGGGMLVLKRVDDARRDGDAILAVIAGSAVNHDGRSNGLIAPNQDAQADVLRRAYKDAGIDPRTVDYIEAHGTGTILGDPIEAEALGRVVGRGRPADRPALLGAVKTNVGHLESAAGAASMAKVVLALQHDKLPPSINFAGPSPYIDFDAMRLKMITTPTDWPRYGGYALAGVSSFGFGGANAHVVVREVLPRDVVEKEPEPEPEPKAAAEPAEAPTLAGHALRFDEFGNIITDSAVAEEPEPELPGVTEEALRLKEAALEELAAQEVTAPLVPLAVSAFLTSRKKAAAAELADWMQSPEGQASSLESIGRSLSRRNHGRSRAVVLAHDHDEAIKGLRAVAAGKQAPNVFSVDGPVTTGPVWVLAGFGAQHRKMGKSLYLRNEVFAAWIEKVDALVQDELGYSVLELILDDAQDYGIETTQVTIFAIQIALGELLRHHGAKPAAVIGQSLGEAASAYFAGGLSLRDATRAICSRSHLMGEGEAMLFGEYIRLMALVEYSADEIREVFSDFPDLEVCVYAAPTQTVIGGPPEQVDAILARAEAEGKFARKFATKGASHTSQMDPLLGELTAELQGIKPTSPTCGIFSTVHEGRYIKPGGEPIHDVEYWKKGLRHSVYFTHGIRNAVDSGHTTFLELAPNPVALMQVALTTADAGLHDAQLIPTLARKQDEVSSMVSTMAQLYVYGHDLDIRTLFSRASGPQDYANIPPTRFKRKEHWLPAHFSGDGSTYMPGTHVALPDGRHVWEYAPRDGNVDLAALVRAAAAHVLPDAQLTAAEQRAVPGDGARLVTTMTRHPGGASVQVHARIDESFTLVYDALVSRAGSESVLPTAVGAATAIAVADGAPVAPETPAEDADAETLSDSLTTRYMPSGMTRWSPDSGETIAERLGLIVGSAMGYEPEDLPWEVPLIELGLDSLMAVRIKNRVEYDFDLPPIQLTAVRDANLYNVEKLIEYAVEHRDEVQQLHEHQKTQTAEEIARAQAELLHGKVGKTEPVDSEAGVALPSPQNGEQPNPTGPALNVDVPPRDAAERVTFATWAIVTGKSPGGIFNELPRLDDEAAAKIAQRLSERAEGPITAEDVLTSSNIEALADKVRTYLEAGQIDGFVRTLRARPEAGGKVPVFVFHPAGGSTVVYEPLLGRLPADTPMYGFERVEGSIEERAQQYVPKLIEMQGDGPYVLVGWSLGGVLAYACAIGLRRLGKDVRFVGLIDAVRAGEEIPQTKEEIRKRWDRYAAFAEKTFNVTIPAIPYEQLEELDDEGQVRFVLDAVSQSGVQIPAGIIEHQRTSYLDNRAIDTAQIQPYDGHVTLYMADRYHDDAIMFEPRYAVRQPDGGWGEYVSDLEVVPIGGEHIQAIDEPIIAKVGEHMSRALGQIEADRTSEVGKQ
UniProt P9WPC5, whole entry: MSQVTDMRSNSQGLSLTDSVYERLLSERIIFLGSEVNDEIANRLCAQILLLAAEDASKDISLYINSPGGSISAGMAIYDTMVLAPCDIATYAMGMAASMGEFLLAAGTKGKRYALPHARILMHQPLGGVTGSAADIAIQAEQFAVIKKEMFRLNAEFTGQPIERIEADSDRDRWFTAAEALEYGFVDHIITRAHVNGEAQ
UniProt P9WPC3, whole entry partner: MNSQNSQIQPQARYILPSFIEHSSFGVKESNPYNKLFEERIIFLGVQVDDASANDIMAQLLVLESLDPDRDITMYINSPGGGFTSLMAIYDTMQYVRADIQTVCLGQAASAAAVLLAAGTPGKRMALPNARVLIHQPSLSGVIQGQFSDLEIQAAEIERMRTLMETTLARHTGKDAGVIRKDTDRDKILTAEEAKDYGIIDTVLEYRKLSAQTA
UniProt A4I591, 1-473: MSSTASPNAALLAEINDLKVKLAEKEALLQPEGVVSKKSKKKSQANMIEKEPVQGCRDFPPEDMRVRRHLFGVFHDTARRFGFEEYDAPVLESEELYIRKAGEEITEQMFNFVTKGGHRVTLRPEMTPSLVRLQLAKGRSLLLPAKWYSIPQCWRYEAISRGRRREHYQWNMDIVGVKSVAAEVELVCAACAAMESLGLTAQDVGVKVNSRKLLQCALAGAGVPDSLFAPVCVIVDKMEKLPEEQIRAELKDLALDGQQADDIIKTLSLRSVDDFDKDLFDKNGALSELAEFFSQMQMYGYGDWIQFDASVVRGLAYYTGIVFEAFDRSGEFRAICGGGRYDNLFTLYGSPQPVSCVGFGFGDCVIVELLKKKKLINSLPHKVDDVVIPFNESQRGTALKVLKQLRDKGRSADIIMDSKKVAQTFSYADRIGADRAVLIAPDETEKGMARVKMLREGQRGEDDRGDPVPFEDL
UniProt P9WFT3, whole entry: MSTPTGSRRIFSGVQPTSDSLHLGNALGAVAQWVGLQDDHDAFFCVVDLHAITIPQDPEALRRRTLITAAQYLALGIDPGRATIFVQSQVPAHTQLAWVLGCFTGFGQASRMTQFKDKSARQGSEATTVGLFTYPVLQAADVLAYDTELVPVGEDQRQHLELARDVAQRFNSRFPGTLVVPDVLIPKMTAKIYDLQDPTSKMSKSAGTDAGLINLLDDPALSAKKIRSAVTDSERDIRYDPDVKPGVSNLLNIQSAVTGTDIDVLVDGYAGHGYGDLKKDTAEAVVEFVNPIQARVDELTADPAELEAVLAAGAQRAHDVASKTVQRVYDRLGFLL

CoaBC: 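Enzyme assay of CoaBC with a phosphate dye (Biomol Green) read at 650 nm. Target: Coenzyme A biosynthesis protein CoaBC, Mycobacterium tuberculosis (UniProt P9WNZ1). Compounds at 30 µM. Direction is inferred from only a few compounds that gave an IC50; most scored high, so higher reads as stronger inhibition. Most strong results did not repeat in a second test. Of about 67,000 compounds tested this way, about 40 (0.06%) reached 50% or more in at least one test.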
Pks13 thioesterase: 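Polyketide synthase Pks13, Mycobacterium tuberculosis (UniProt I6X8D2). Enzyme assay of the thioesterase domain of polyketide synthase 13; the read-out is not stated. Tested at 30 µM. The record gives no direction; the compounds picked for IC50 retests had high values, so higher reads as stronger inhibition. Size under these conditions: about 67,000 compounds, about 300 of them at 50% or above in at least one test.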
ClpP1P2: 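ClpP1P2, Mycobacterium tuberculosis (UniProt P9WPC5 and UniProt P9WPC3). Protease assay of ClpP1P2, read by the AMC dye that it sets free. Concentration: 50 µM. Higher reads as stronger inhibition, judged from the few compounds that gave an IC50. Most other retested compounds had strongly negative values. Of about 69,000 compounds tested this way, about 10 (0.015%) reached 50% or more in at least one test.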
Toxoplasma: 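Assay of Toxoplasma gondii numbers, read through their beta-galactosidase reporter with a colour substrate. Tested at 10 µM. Higher reads as fewer parasites (inferred from which compounds were picked for retests). About 67,000 compounds were tested under these conditions; 0.38% (about 260) showed 50% or more at least once.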
LiHisRS: 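Enzyme assay of histidyl-tRNA synthetase; the read-out is not stated. Target: Histidine-tRNA ligase, Leishmania infantum (UniProt A4I591). Concentration: 30 µM. Higher reads as stronger inhibition (inferred: compounds with an IC50 in retests scored well above the rest). The assay is labelled LdHisRS but filed under L. infantum. About 69,000 compounds were tested under these conditions; 0.6% (about 410) showed 50% or more at least once.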
MtTrpRS: 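Enzyme assay of tryptophanyl-tRNA synthetase; the read-out is not stated. Target: Tryptophan-tRNA ligase, Mycobacterium tuberculosis (UniProt P9WFT3). Compounds at 10 µM. Direction is not recorded; retested compounds ran higher, which suggests that high means inhibition. About 65,000 compounds were tested under these conditions; 0.098% (about 64) showed 50% or more at least once.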

Results are given as percent effect. How 0% and 100% were set is not recorded. Most values in the screen are low, and negative values occur. Compounds were drawn at random from those tested, without regard to their results. Two or more numbers in one place are separate tests of the same structure; such repeats can differ widely. A dash means the value is not listed here; it may have been measured.

compound	CoaBC	Pks13 thioesterase	ClpP1P2	Toxoplasma	LiHisRS	MtTrpRS
COCCN(CCOC)C(=O)c1ccoc1C	1.276%	-26.84%	1.774%	2.709%	11.67%	-5.34%
CCOc1ccnc(N2CCN(C(=O)C(C)(C)C#N)CC2)n1	5.843%	-8.36%	0.3221%	-3.955%	10.61%	0.6823%
COCCNc1nc2c(c(NCc3cnc(C)cn3)n1)CCNCC2	-33.62%	-19.58%	4.618%	-1.212%	-33.33%	-4.839%
Cc1cc(C)nc(N2CCCC(C(=O)Nc3n[nH]c(C(C)C)n3)C2)n1 (stereo not given)	38.8% & 18.04%	-14.9%	-5.299%	0.7952%	3.371%	2.832%
Cc1noc([C@@H]2C[C@H]3CN(C(=O)C4CCN(C)CC4)C[C@H]3O2)n1	3.807%	-19.98%	-0.5142%	-	17.65%	-1.728%
N#Cc1ccc(CNCCc2cc(F)cc3c2OCOC3)cc1	3.396%	-19.22%	-12.05%	-3.816%	10.62%	2.313%
Cc1ncsc1CN1Cc2cn(C)nc2C(COCC2CC2)C1.O=C(O)C(F)(F)F.O=C(O)C(F)(F)F (stereo not given)	-	-	-	13.41%	-	-
COc1ccccc1CC1CCCN(C(=O)c2cn[nH]c2C)C1 (stereo not given)	4.783%	-38.26%	3.713%	-1.685%	7.853%	-1.638%
COc1ccc(C)cc1NC(=O)c1c(C)cn(C)c1CC(=O)O	-9.881%	-1.301%	0.6965%	3.477%	5.479%	-3.562%
O=C(NCCc1c[nH]cn1)c1ccccc1C1CCNC1 (stereo not given)	-2.676%	-33%	-5.064%	-33.04%	-13.33%	-3.123%
CC(Nc1cccc(CN2CCOC2=O)c1)C(=O)NC(=O)NC(C)(C)C (stereo not given)	0%	-17.77%	-16.9%	-8.372%	13.89%	-2.406%
CC(C)N(C)Cc1cncc2c1CCN(Cc1cccs1)C2.Cl.Cl.Cl	-	-	-	-12.28%	-	-
CC(C)NC(=O)COc1nc(C(C)(C)C)no1	10.02%	-7.721%	-7.073%	-0.3462%	15.38%	3.483%
CC1=N[C@@]2(CC[C@@H]3CNC[C@@H]32)C(=O)N1CC(C)C	3.599%	-2.373%	13.95%	-	4.511%	-4.098%
COCCCN1CC2(CCN(C(=O)c3ncc(F)cc3F)CC2)CC1=O	9.709%	-6.319%	13.59%	11.63%	10.59%	4.996%
COc1cccc(C(=O)NS(=O)(=O)c2cncc(Br)c2)c1OC	3.444%	-20.3%	10.94%	-0.4693%	14.29%	0.9874%
CCC(C)NC(=O)Cn1ccc2c(C)nn(CC)c2c1=O (stereo not given)	1.324%	7.612%	2.31%	9.448%	17.98%	3.522%
Cc1csc2c(N3CCNC(C(=O)Nc4ccc(F)cc4)C3)ncnc12 (stereo not given)	-1.515%	-26.22%	-12.3%	-33.52%	14.75%	0%
O=C(O)C(F)(F)F.[H][C@@]12CCN(S(=O)(=O)N(C)C)C[C@]1(COc1cccnc1)CCO2	-	-	-	1.764%	-	-
CCOc1ncccc1C(=O)N1CCCC1Cn1nc(C)cc1C (stereo not given)	6.6%	-20.99%	-13.63%	17.11%	3.67%	-1.838%
CCOCC(=O)N1CCC2(CC1)COC(COCc1ccccn1)C2 (stereo not given)	2.804%	-11.68%	0.4047%	-	17.11%	-1.784%
CN(Cc1ccccc1)c1cnn(CC2COCCO2)c(=O)c1 (stereo not given)	4.151%	-10.38%	-11.71%	-16.22%	24.78%	4.626%
COc1ccc2c(c1)CCCN2C(=O)CN1CCOC(CN(C)C)C1 (stereo not given)	8.182%	-21.32%	0.7371%	0%	8.219%	1.784%
CC(C)N1CCC(CC(=O)N(C)C(C)c2cncs2)CC1 (stereo not given)	16.07%	-14.46%	1.195%	-4.712%	8.333%	-0.1032%
O=c1cc(CNCc2ccc3c(c2)OCO3)nc2ccccn12	1.446%	2.076%	7.36%	16.5%	18.68%	-0.06473%
COc1ccnc(N2CCN(C(=O)c3csnn3)CC2)n1	12.88%	-30.16%	5.393%	-3.304%	16.39%	4.661%
CC(O)CN(CC(=O)NC(=O)NC1CC1)c1ccccc1 (stereo not given)	3.59%	-16.33%	0.2067%	-1.24%	10.67%	-1.016%
Cc1nc(CN2CCN(c3ccc(Cl)cn3)CC2)no1	2.81%	4.438%	7.021%	9.163%	22.45%	1.468%
N#Cc1cccc(OCCN2CCCC2C(=O)NCC(F)(F)F)c1 (stereo not given)	-1.04%	0.01768%	2.124%	12.55%	19.64%	-1.508%
CCOCCC(=O)N(Cc1ccncc1)C(C)CC (stereo not given)	-2.927%	-1.762%	-21.25%	-5.709%	-3.2%	-1.354%
Cc1ccc(C(C)(O)CNC(=O)c2scnc2C)o1 (stereo not given)	-	-37.51%	-0.917%	1.789%	22.86%	0.1032%

3 of the entries, repeated:

CC(O)CN(CC(=O)NC(=O)NC1CC1)c1ccccc1 (stereo not given) read CoaBC: 3.59%; Pks13 thioesterase: -16.33%; ClpP1P2: 0.2067%; Toxoplasma: -1.24%; LiHisRS: 10.67%; MtTrpRS: -1.016%.
COCCNc1nc2c(c(NCc3cnc(C)cn3)n1)CCNCC2 read CoaBC: -33.62%; Pks13 thioesterase: -19.58%; ClpP1P2: 4.618%; Toxoplasma: -1.212%; LiHisRS: -33.33%; MtTrpRS: -4.839%.
CCC(C)NC(=O)Cn1ccc2c(C)nn(CC)c2c1=O (stereo not given) read CoaBC: 1.324%; Pks13 thioesterase: 7.612%; ClpP1P2: 2.31%; Toxoplasma: 9.448%; LiHisRS: 17.98%; MtTrpRS: 3.522%.

From ChEMBL document CHEMBL3988442, “University of Dundee, Small-Polar-MMV Screening Library” (2021).